Source: the supplement of paper PMC12823440, “Inhibitors supercharge kinase turnover through native proteolytic circuits” (Nature, 2025)
The other results are listed elsewhere or left out. Hit calls seldom repeat between salt and free forms of one compound.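 Kinases were expressed as nanoluciferase fusions in K562 cells and luminescence was read every 4 h between 2 and 18 h as percent of control, DMSO set to 100% and a positive control to 0%. A time point counts as decreased when the signal drops significantly (2 sigma). The hit call is the authors' own, does not follow from the count of time points alone, and its rule is not shown.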

Sequences of proteins named here, by UniProt entry; tags and fusion partners are left off. A change or cut given only in a name is not applied to a line headed by its entry.
UniProt P21860, whole entry: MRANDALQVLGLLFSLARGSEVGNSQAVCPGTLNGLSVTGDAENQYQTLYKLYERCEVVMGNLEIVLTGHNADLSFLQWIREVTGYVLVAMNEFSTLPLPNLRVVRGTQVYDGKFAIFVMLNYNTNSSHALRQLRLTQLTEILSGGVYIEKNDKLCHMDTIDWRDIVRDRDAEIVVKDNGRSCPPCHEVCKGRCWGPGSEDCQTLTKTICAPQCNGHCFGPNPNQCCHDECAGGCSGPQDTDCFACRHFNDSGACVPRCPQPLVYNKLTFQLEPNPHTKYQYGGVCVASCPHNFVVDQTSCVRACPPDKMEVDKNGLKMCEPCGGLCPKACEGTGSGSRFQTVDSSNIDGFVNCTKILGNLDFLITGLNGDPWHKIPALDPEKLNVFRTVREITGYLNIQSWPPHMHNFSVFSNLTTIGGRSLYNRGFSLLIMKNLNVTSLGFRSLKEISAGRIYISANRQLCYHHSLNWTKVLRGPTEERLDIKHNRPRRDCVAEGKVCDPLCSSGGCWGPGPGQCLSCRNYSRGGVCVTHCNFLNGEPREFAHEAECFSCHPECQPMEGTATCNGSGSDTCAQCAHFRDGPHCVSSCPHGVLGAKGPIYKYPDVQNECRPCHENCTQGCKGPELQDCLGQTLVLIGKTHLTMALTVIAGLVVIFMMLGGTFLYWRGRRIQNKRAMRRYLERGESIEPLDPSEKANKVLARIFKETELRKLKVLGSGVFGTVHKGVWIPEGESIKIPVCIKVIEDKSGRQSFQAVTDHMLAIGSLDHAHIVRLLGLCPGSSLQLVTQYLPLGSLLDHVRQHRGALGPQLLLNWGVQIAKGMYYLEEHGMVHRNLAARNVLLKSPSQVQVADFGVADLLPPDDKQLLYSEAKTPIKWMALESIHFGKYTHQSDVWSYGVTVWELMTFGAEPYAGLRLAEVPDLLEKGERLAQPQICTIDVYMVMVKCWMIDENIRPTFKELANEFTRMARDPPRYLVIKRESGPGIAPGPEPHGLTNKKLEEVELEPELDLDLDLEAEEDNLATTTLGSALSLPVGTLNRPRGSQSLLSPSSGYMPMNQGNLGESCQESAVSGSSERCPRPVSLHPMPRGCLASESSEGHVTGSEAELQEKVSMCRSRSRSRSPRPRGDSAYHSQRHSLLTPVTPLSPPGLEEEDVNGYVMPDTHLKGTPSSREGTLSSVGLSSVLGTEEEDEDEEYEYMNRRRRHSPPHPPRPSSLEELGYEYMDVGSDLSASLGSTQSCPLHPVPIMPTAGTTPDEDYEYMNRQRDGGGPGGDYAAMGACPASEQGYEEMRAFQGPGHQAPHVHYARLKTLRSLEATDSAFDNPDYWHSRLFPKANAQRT
UniProt P21802, whole entry, looked up: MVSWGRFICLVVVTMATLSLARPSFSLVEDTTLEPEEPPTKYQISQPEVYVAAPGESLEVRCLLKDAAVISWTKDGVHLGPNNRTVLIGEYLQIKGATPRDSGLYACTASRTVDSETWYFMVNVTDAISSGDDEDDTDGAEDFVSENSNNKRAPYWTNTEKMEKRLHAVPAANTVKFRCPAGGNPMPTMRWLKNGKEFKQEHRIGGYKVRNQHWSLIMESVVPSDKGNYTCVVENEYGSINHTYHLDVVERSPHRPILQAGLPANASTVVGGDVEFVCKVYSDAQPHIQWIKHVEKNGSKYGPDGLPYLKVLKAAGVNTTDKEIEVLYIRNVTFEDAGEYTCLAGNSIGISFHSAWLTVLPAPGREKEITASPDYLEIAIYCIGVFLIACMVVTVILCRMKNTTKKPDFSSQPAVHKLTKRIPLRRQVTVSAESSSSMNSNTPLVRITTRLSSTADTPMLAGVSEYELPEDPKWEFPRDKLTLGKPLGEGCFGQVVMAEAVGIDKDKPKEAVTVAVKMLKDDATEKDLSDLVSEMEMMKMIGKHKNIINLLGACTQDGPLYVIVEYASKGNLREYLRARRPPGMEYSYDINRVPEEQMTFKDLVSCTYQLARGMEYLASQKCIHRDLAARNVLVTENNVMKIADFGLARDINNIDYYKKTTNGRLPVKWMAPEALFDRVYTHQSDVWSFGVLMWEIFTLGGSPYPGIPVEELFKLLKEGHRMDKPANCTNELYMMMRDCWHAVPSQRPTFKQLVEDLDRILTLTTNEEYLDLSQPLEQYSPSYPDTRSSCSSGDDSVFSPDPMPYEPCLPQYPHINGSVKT
UniProt P06241, whole entry, looked up: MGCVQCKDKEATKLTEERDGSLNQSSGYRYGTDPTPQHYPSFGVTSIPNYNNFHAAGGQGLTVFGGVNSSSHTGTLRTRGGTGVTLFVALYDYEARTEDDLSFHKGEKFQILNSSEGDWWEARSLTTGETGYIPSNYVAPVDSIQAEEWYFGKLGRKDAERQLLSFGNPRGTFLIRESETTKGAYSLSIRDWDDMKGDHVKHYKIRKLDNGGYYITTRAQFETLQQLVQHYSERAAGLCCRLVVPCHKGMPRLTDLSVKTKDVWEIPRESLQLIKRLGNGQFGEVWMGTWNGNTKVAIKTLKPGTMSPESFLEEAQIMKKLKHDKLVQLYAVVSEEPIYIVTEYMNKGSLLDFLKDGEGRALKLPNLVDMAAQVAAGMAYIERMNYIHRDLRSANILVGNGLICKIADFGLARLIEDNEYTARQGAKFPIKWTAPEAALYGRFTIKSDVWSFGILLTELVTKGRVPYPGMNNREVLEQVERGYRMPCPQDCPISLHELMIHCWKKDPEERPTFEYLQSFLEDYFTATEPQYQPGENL
UniProt P49840: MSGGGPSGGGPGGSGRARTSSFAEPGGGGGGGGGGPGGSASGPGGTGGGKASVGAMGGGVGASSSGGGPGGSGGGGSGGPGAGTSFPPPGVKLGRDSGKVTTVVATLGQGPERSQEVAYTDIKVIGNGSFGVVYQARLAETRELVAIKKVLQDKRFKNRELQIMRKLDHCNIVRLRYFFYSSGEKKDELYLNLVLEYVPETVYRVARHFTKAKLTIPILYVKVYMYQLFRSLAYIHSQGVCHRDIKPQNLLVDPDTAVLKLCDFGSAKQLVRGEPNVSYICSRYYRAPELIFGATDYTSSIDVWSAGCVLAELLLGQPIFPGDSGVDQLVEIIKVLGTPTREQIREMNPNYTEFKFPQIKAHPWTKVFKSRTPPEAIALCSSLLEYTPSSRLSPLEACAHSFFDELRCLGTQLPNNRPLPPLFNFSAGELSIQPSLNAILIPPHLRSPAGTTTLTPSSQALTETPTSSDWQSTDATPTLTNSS
UniProt P14616: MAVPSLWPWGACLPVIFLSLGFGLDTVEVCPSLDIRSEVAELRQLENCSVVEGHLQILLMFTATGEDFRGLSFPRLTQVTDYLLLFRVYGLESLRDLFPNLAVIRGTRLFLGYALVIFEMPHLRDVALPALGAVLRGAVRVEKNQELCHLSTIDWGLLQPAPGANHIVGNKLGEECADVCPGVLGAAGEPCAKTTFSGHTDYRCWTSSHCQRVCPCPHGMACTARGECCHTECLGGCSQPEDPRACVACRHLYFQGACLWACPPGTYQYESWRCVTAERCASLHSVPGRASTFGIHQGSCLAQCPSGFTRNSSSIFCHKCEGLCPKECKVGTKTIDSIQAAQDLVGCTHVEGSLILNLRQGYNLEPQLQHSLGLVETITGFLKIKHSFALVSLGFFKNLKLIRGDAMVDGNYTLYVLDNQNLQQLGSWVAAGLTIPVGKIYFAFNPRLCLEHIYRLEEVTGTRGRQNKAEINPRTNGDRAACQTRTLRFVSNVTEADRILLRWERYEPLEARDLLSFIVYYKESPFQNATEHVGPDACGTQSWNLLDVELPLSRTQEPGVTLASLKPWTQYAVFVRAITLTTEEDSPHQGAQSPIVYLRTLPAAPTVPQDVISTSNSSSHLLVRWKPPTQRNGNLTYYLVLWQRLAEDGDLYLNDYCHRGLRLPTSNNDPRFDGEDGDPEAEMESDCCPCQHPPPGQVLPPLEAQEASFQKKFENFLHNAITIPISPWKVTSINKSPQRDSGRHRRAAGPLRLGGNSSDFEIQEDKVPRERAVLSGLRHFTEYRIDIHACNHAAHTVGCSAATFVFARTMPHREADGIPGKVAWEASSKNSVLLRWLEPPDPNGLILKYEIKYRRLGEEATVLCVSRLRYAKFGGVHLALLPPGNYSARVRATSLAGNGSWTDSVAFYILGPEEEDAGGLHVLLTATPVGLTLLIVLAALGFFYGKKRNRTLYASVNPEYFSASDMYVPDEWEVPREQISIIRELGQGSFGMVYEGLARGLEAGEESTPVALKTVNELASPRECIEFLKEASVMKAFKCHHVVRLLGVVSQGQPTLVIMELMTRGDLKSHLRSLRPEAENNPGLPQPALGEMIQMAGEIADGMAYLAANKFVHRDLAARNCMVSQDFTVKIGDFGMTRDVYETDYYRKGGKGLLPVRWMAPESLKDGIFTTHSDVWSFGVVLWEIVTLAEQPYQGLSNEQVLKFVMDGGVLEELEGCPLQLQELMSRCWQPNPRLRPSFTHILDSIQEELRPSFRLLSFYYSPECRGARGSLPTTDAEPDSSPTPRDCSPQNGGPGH
UniProt Q9Y616: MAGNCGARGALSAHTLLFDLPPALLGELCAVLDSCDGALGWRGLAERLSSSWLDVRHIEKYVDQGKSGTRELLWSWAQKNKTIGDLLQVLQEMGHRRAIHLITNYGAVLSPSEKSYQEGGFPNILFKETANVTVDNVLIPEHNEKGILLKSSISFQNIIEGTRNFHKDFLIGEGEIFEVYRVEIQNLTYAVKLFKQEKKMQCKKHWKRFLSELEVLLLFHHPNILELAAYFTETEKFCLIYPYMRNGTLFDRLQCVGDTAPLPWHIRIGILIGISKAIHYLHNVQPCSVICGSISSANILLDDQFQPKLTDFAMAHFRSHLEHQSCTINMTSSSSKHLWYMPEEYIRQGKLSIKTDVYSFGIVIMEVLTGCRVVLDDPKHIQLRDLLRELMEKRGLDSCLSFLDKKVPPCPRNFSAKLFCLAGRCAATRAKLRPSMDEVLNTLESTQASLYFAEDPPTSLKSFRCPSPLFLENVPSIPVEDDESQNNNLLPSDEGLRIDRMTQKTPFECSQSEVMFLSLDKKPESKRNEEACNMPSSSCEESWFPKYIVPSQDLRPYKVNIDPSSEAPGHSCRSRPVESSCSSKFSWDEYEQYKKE
UniProt P06239: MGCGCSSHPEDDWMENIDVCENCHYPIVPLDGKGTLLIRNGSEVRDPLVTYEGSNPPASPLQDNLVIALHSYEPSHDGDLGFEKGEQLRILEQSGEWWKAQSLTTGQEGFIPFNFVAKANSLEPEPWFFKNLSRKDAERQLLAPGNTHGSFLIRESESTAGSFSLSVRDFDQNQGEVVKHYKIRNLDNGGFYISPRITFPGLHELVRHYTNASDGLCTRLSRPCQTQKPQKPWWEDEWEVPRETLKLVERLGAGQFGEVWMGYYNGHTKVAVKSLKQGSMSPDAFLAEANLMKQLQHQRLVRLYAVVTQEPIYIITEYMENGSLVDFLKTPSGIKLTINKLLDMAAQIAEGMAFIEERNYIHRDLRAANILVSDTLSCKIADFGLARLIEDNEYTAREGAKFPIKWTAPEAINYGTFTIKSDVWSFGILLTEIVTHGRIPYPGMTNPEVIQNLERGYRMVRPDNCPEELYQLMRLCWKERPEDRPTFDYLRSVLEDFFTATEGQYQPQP
UniProt P53667: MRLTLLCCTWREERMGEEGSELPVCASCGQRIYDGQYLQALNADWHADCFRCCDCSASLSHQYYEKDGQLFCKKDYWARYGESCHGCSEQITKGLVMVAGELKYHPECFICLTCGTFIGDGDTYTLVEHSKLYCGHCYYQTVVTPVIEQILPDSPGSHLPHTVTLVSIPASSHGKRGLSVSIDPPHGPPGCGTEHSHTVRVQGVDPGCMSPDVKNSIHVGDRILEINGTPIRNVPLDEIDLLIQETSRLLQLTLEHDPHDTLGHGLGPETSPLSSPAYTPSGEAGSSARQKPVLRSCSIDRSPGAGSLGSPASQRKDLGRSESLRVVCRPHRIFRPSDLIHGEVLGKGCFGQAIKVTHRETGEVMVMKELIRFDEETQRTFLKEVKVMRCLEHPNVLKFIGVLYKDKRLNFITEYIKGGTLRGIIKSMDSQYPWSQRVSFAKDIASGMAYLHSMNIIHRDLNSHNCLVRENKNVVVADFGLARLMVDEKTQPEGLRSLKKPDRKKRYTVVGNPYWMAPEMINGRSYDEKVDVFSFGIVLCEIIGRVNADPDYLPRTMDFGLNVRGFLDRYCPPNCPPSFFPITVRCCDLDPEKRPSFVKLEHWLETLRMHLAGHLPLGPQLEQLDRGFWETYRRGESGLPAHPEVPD

Columns and labels:
Assay in all cases: number of time points (of 5) at which kinase-Nluc abundance scored as decreased, DMSO-normalised (count); higher = more persistent destabilization
Details in all cases: K562; 2-18 h
[1] = target: EGFR_L861Q (UniProt P00533)
[2] = target: EGFR_T790M (UniProt P00533)
[3] = target: EPHA2 (UniProt P29317)
[4] = target: ERBB3 (UniProt P21860)
[5] = target: ERBB4_R711C (clone: ERBB4_mut) (UniProt Q15303)
[6] = target: ERN1 (UniProt O75460)
[7] = target: FGFR1 (UniProt P11362)
[8] = target: FGFR2 (UniProt P21802)
[9] = target: FGFR3 (UniProt P22607)
[10] = target: FGR (UniProt P09769)
[11] = target: FLT3 (UniProt P36888)
[12] = target: FYN (UniProt P06241)
[13] = target: GSK3A (UniProt P49840)
[14] = target: HER2 (UniProt P04626)
[15] = target: INSRR (UniProt P14616)
[16] = target: IRAK3 (UniProt Q9Y616)
[17] = target: JAK1 (UniProt P23458)
[18] = target: LCK (UniProt P06239)
[19] = target: LIMK1 (UniProt P53667)
[20] = target: LIMK2 (UniProt P53671)

Row | Structure (SMILES) | number of time points [1] | number of time points [2] | number of time points [3] | number of time points [4] | number of time points [5] | number of time points [6] | number of time points [7] | number of time points [8] | number of time points [9] | number of time points [10] | number of time points [11] | number of time points [12] | number of time points [13] | number of time points [14] | number of time points [15] | number of time points [16] | number of time points [17] | number of time points [18] | number of time points [19] | number of time points [20]
1 | COc1ccc(-c2cc(=O)c3c(OC)cc(OC)c(OC)c3o2)cc1 [6-Demethoxytangeretin] (10 µM) | 0 | 0 | 0 | 0 | 0 | 0 | 0 | 0 | 0 | 0 | 0 | 0 | 0 | 0 | 0 | 0 | 0 | 0 | 0 | 0
2 | COc1cc(F)ccc1-c1ncnc(Nc2cccc(C[S@](C)(=N)=O)c2)n1 [Atuveciclib] (2.5 µM) | 3 | 2 | 0 | 3 | 3 | 2 | 0 | 2 | 0 | 0 | 3 | 1 | 2 | 0 | 0 | 2 | 2 | 0 | 0 | 0
3 | O=C1CC[C@H](NC(=O)Cc2ccccc2)C(=O)N1 [Antineoplaston A10] (10 µM) | 0 | 0 | 0 | 0 | 0 | 0 | 0 | 0 | 0 | 0 | 0 | 0 | 0 | 0 | 0 | 0 | 0 | 0 | 0 | 0
4 | c1ccc(Cn2c(-c3ccc(OC[C@H](C4CCNCC4)n4c(-c5ccccc5)nc5ccccc54)cc3)nc3ccccc32)cc1 [Deltarasin] (2.5 µM) | 0 | 0 | 0 | 0 | 0 | 0 | 0 | 0 | 0 | 0 | 0 | 0 | 0 | 0 | 0 | 0 | 0 | 0 | 0 | 0
5 | CC(C)Oc1ccc(F)c(-c2cnc(N)c(C(=O)Nc3cnccc3N3CCC[C@@H](C(=O)O)C3)n2)c1 (2 µM) | 2 | 0 | 0 | 0 | 4 | 0 | 0 | 0 | 0 | 0 | 4 | 0 | 0 | 0 | 0 | 0 | 2 | 0 | 0 | 0
6 | O=C(Nc1cccnc1)c1cc(-c2ccnc(F)c2)ccc1OCc1ccccc1 (10 µM) | 0 | 0 | 0 | 0 | 0 | 0 | 0 | 0 | 0 | 0 | 0 | 0 | 0 | 0 | 0 | 0 | 0 | 0 | 0 | 0
7 | N[C@@H]1CCCN(c2c(/C=C3\SC(=O)NC3=O)cccc2-c2ccccc2)C1 (10 µM) | 0 | 0 | 0 | 0 | 1 | 0 | 0 | 0 | 0 | 0 | 0 | 1 | 0 | 0 | 0 | 0 | 0 | 0 | 2 | 0
8 | Cc1c(C(=O)Nc2ccc(Oc3ccnc4[nH]cc(-c5ccccc5)c34)c(F)c2)c(=O)n(-c2ccc(F)cc2)n1C (10 µM) | 0 | 0 | 0 | 0 | 0 | 0 | 1 | 2 | 0 | 0 | 0 | 0 | 0 | 0 | 1 | 0 | 0 | 0 | 2 | 0
9 | O=C(O)[C@H]1O[C@@H](Oc2cc3oc(-c4ccc(O)cc4)cc(=O)c3c(O)c2O)[C@H](O)[C@@H](O)[C@@H]1O [Scutellarin] (10 µM) | 0 | 0 | 0 | 0 | 0 | 0 | 0 | 0 | 0 | 0 | 0 | 0 | 0 | 0 | 0 | 0 | 0 | 0 | 0 | 0
10 | C=CC(=O)N1CC[C@@H](Oc2nc(Nc3ccc(N4CCC(N5CCN(C)CC5)CC4)cc3)c(C(N)=O)nc2CC)C1 [Naquotinib (mesylate)] (2.5 µM) | 0 | 0 | 0 | 0 | 0 | 0 | 0 | 0 | 0 | 0 | 0 | 0 | 0 | 1 | 0 | 0 | 0 | 0 | 0 | 0
11 | C=CC(=O)Nc1cccc(Oc2nc(Nc3ccc(N4CCN(C)CC4)c(F)c3)nc3[nH]ccc23)c1 [Avitinib (maleate)] (2.5 µM) | 0 | 0 | 0 | 0 | 0 | 0 | 0 | 0 | 0 | 0 | 0 | 0 | 0 | 0 | 0 | 0 | 0 | 0 | 0 | 0
12 | CNC(=O)c1ccc2c(c1)ncn2-c1ccc(CC(=O)OC(C)(C)C)cc1 (10 µM) | 0 | 0 | 0 | 0 | 0 | 0 | 0 | 0 | 0 | 0 | 0 | 0 | 0 | 0 | 0 | 0 | 0 | 0 | 0 | 0
13 | CCCn1/c(=N/C(=O)c2cccc(C(N)=O)c2)[nH]c2ccccc21 [Takinib] (10 µM) | 0 | 0 | 0 | 0 | 0 | 0 | 0 | 0 | 0 | 0 | 0 | 0 | 0 | 0 | 0 | 0 | 0 | 0 | 0 | 0
14 | N#Cc1ccc2ncnc(NCCc3ccccc3)c2c1 [Senexin A] (10 µM) | 0 | 0 | 0 | 0 | 0 | 0 | 0 | 0 | 0 | 0 | 0 | 0 | 0 | 0 | 0 | 0 | 0 | 0 | 0 | 0
15 | CC(C)CCN1c2nc(Nc3cc(F)c(O)c(F)c3)ncc2N(C)C(=O)C1C (stereo not given) (2.5 µM) | 0 | 0 | 0 | 0 | 0 | 0 | 0 | 0 | 0 | 0 | 0 | 0 | 0 | 0 | 0 | 0 | 0 | 0 | 0 | 0
16 | O=c1[nH]ccc2nc(-c3ccc(CN4CCC(c5nc(-c6ccccn6)n[nH]5)CC4)cc3)c(-c3ccccc3)cc12 (10 µM) | 0 | 0 | 0 | 0 | 0 | 0 | 0 | 0 | 0 | 0 | 0 | 0 | 0 | 0 | 0 | 0 | 0 | 0 | 0 | 0
17 | Oc1c(F)cc(-c2cnccc2-c2ccc(N3CCOCC3)cc2)cc1F (10 µM) | 0 | 0 | 0 | 0 | 0 | 0 | 0 | 0 | 0 | 0 | 0 | 0 | 0 | 0 | 0 | 0 | 0 | 0 | 0 | 0

Ordered by molar mass (falling): some entries from above.
Row | Structure (SMILES) | number of time points [1] | number of time points [2] | number of time points [3] | number of time points [4] | number of time points [5] | number of time points [6] | number of time points [7] | number of time points [8] | number of time points [9] | number of time points [10] | number of time points [11] | number of time points [12] | number of time points [13] | number of time points [14] | number of time points [15] | number of time points [16] | number of time points [17] | number of time points [18] | number of time points [19] | number of time points [20]
5 | CC(C)Oc1ccc(F)c(-c2cnc(N)c(C(=O)Nc3cnccc3N3CCC[C@@H](C(=O)O)C3)n2)c1 (2 µM) | 2 | 0 | 0 | 0 | 4 | 0 | 0 | 0 | 0 | 0 | 4 | 0 | 0 | 0 | 0 | 0 | 2 | 0 | 0 | 0
1 | COc1ccc(-c2cc(=O)c3c(OC)cc(OC)c(OC)c3o2)cc1 [6-Demethoxytangeretin] (10 µM) | 0 | 0 | 0 | 0 | 0 | 0 | 0 | 0 | 0 | 0 | 0 | 0 | 0 | 0 | 0 | 0 | 0 | 0 | 0 | 0
3 | O=C1CC[C@H](NC(=O)Cc2ccccc2)C(=O)N1 [Antineoplaston A10] (10 µM) | 0 | 0 | 0 | 0 | 0 | 0 | 0 | 0 | 0 | 0 | 0 | 0 | 0 | 0 | 0 | 0 | 0 | 0 | 0 | 0
